Test results taken from publication PMC4923796.
Results are given in words; binding and its absence hold for the method and conditions named. Binding seen in cells or lysates may run through a third protein. Some results given as binding are weak or reduced against the parent protein; the word gives no strength. Tags and fused reporters may be left off the sequences shown.

Target: T1, ERΔK-GFP (ERECTA lacking the cytoplasmic kinase domain, C-terminal GFP fusion) (Arabidopsis thaliana) (UniProt Q42371)
T1 sequence: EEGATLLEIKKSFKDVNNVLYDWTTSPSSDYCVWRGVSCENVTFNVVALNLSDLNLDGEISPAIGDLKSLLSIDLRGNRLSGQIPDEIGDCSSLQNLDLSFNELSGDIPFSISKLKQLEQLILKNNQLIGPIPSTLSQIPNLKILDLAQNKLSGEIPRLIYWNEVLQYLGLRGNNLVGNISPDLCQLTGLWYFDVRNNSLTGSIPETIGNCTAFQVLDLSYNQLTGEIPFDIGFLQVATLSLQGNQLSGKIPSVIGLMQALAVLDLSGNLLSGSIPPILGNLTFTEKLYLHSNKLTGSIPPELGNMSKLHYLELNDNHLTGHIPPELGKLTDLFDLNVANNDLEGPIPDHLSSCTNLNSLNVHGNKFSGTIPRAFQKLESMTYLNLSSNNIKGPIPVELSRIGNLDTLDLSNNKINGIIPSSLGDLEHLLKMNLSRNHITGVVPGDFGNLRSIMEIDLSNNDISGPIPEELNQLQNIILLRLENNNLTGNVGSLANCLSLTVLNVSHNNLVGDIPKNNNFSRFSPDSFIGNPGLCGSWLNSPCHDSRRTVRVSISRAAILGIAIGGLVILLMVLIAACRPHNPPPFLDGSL
Test: co-IP; N. benthamiana leaves transiently co-expressing ERΔK-GFP and BAK1-HA, infiltrated with water (mock) or PcBMM spores for 15 or 30 min; extract in 50 mM Tris pH 7.5, 150 mM NaCl, 1% IGEPAL CA-630; IP with anti-GFP antibody and Protein G Dynabeads at 4°C, washes with 2% IGEPAL; immunoblot with anti-HA

B1: BAK1-HA (BRASSINOSTEROID … 1-associated kinase 1, full length, with a C-terminal HA fusion) (receptor, UniProt Q94F62 26-615)
chain: NAEGDALSALKNSLADPNKVLQSWDATLVTPCTWFHVTCNSDNSVTRVDLGNANLSGQLVMQLGQLPNLQYLELYSNNITGTIPEQLGNLTELVSLDLYLNNLSGPIPSTLGRLKKLRFLRLNNNSLSGEIPRSLTAVLTLQVLDLSNNPLTGDIPVNGSFSLFTPISFANTKLTPLPASPPPPISPTPPSPAGSNRITGAIAGGVAAGAALLFAVPAIALAWWRRKKPQDHFFDVPAEEDPEVHLGQLKRFSLRELQVASDNFSNKNILGRGGFGKVYKGRLADGTLVAVKRLKEERTQGGELQFQTEVEMISMAVHRNLLRLRGFCMTPTERLLVYPYMANGSVASCLRERPESQPPLDWPKRQRIALGSARGLAYLHDHCDPKIIHRDVKAANILLDEEFEAVVGDFGLAKLMDYKDTHVTTAVRGTIGHIAPEYLSTGKSSEKTDVFGYGVMLLELITGQRAFDLARLANDDDVMLLDWVKGLLKEKKLEALVDVDLQGNYKDEEVEQLIQVALLCTQSSPMERPKMSEVVRMLEGDGLAERWEEWQKEEMFRQDFNYPTHHPAVSGWIIGDSTSQIENEYPSGPR
- binding: binds
